Some of these results come from one statement about several compounds together.
Target: T1, PAPD5 (Homo sapiens, UniProt Q8NDF8)
T1 construct: made in house
Test: PAPD5 oligonucleotide extension assay (gel), compound dose response vs ATP
Type: biochemical
Details: tested at 0, 5, 10, 50, 100 μM compound, each at 0, 10, 100, 1000 μM ATP
Experimental: Candidate inhibitors are assayed at a range of concentrations in functional assays entailing extension of fluorescently-labelled RNA oligonucleotide substrates in the presence of PAPD5, followed by gel electrophoresis. […] In FIG. 5, a 20-mer 5′-fluorescently labelled RNA oligonucleotide was incubated with recombinant WT or mutant PAPD5 for 1 hour in the presence of varying concentrations of ATP, and products were visualized by polyacrylamide gel electrophoresis. It is expected that wildtype (WT) PAPD5 with PAPD5 inhibitors can have similar results. In fact, 4 compounds were selected to test the validation assay. The results were shown in FIG. 8, and were consistent with the expected results.
Each compound tested in the assay was tested at 0 μM, 5 μM, 10 μM, 50 μM, and 100 μM. At each concentration, each compound was tested at 0 μM, 10 μM, 100 μM, and 1000 μM concentration of ATP.

Protein sequences, listed by entry. Tags and fused reporters are not part of them. Residues count along the entry.
UniProt Q8NDF8, 68-698 isoform Q8NDF8-5: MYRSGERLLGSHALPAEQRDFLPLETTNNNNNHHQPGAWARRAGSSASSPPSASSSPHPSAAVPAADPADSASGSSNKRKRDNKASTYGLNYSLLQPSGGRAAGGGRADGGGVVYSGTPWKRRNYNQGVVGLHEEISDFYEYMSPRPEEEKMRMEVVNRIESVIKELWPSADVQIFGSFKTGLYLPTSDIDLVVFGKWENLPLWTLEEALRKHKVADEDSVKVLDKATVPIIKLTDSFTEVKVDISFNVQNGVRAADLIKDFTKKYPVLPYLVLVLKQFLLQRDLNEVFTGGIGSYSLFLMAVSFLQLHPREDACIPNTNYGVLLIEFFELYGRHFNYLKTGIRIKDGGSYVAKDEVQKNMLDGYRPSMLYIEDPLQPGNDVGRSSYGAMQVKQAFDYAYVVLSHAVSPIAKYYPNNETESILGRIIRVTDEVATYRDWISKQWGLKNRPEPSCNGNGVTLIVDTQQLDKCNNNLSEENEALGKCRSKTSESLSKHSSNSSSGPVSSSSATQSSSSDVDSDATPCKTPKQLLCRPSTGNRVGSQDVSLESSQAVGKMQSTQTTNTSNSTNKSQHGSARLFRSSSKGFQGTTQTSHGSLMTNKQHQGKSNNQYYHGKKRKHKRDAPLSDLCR

NC(=O)c1sc(=S)n2c1[nH]c(=O)c1cc3c(cc12)OCO3 [entry 8 in table 3, 5-oxo-1-thioxo-4,5-dihydro[1,3]dioxolo[4,5-g][1,3]thiazolo[3,4-a]quinazoline-3-carboxamide]
concentration at which compound is active in the PAPD5 oligonucleotide extension assay (FIGS. 12, 13): less than 10 UM

CCc1ccc2ncc(C(=O)c3ccc(C)c(C)c3)c(N3CCC(C(N)=O)CC3)c2c1 [entry 2 in Table 5, 1-[3-(3,4-dimethylbenzoyl)-6-ethylquinolin-4-yl]piperidine-4-carboxamide]
concentration at which compound is active in the PAPD5 oligonucleotide extension assay (FIGS. 14-16): less than 10 μM

CCOC(=O)c1cnc2ccc(OC(F)(F)F)cc2c1Nc1ccccc1C(=O)O [entry 1 in Table 5, 2-[[3-ethoxycarbonyl-6-(trifluoromethoxy)quinolin-4-yl]amino]benzoic acid]
concentration at which compound is active in the PAPD5 oligonucleotide extension assay (FIGS. 14-16): less than 10 μM

N#C/C(=C\c1ccc(-c2ccc(C(=O)O)cc2)o1)C(=O)Nc1ccccc1C(=O)O [entry 244 in Table 5, 2-[[(E)-3-[5-(4-carboxyphenyl)furan-2-yl]-2-cyanoprop-2-enoyl]amino]benzoic acid]
concentration at which compound is active in the PAPD5 oligonucleotide extension assay (FIGS. 14-16): less than 10 μM

O=C(O)C1CC(=O)N(Cc2ccc3c(c2)OCO3)C1 (centres unmarked) [entry 5 in table 3, 1-(1,3-benzodioxol-5-ylmethyl)-5-oxopyrrolidine-3-carboxylic acid]
concentration at which compound is active in the PAPD5 oligonucleotide extension assay (FIGS. 12, 13): less than 10 UM

Reference: patent publication US12171755B2, “PAPD5 inhibitors and methods of use thereof” (Children's Medical Center Corporation, priority 2017, dated 2024)
